Laboratory results as given in article PMC9223905.
No constants are given. Whether binding was seen depends on the method and setting. In cells and extracts the contact can be indirect. Some results given as binding are weak or reduced against the parent protein; the word gives no strength.

The chains behind the UniProt entries cited, without tags or fusion partners.
UniProt P60323: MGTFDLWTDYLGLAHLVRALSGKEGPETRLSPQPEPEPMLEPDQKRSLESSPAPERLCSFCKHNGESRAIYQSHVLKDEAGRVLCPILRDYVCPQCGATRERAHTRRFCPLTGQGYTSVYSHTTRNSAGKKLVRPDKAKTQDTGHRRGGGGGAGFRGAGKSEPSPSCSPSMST
UniProt Q14671: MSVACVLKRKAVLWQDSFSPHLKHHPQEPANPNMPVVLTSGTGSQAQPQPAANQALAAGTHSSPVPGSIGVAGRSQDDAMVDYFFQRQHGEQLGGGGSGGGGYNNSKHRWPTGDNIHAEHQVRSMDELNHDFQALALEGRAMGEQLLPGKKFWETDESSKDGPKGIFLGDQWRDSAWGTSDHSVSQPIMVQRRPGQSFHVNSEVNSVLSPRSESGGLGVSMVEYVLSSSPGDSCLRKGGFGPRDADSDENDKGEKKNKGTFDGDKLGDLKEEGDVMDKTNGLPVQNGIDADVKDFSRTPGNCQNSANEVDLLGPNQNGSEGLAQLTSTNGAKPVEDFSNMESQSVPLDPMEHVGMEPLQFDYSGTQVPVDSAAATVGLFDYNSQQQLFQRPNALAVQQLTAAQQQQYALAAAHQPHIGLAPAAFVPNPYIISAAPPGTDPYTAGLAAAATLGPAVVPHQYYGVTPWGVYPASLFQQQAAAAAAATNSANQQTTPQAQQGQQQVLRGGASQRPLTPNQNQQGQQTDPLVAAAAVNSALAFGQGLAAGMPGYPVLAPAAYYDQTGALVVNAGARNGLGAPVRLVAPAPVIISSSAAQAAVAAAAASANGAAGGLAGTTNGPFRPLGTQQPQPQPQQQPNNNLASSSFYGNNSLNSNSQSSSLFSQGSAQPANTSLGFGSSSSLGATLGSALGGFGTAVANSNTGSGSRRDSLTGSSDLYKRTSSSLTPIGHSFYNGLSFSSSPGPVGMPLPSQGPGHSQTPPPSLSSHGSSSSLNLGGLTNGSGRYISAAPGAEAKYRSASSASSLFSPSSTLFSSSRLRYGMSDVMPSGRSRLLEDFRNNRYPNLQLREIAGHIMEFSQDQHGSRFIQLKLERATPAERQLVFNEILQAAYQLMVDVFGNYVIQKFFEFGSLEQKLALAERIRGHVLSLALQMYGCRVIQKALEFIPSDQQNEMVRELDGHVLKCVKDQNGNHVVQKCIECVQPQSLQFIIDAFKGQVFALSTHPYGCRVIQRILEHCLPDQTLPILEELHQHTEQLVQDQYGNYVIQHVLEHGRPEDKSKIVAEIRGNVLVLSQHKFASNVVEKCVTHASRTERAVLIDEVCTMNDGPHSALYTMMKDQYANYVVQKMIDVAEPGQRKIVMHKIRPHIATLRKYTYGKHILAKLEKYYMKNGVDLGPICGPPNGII

How the values were obtained:
[1] = target: NANOS3-GST (human) (UniProt P60323); test: pull-down; NANOS3-GST and PUM1-FLAG overexpressed in TCam-2 cells; 0.3% formaldehyde cross-linking 10 min; lysis in 1% Triton X-100 buffer; RNase A added to the lysate (RNase + sample); Pierce GST beads, 2 h at 4 °C; Western blot
[2] = target: NANOS3-GST (human) (UniProt P60323); test: pull-down; NANOS3-GST and PUM1-FLAG overexpressed in TCam-2 cells; 0.3% formaldehyde cross-linking 10 min; lysis in 1% Triton X-100 buffer; 1x RNase inhibitors added (RNase - sample); Pierce GST beads, 2 h at 4 °C; Western blot

binding [1]: binds weakly
binding [2]: binds
Substance: PUM1-FLAG (from UniProt Q14671 1-1186)
